These are yes or no findings as the source states them, for the method shown. Binding seen in cells or lysates may run through a third protein. Some entries that bind do so weakly or less than the wild type.
B1: ETS-related gene (ERG) (protein, UniProt P11308 1-479)
chain: MASTIKEALSVVSEDQSLFECAYGTPHLAKTEMTASSSSDYGQTSKMSPRVPQQDWLSQPPARVTIKMECNPSQVNGSRNSPDECSVAKGGKMVGSPDTVGMNYGSYMEEKHMPPPNMTTNERRVIVPADPTLWSTDHVRQWLEWAVKEYGLPDVNILLFQNIDGKELCKMTKDDFQRLTPSYNADILLSHLHYLRETPLPHLTSDDVDKALQNSPRLMHARNTGGAAFIFPNTSVYPEATQRITTRPDLPYEPPRRSAWTGHGHPTPQSKAAQPSPSTVPKTEDQRPQLDPYQILGPTSSRLANPGSGQIQLWQFLLELLSDSSNSSCITWEGTNGEFKMTDPDEVARRWGERKSKPNMNYDKLSRALRYYYDKNIMTKVHGKRYAYKFDFHGIAQALQPHPPESSLYKYPSDLPYMGSYHAHPQKMNFVAPHPPALPVTSSSFFAAPNPYWNSPTGGIYPNTRLPTSHMPSHLGTYY

The chains behind the UniProt entries cited, without tags or fusion partners.
UniProt P10275: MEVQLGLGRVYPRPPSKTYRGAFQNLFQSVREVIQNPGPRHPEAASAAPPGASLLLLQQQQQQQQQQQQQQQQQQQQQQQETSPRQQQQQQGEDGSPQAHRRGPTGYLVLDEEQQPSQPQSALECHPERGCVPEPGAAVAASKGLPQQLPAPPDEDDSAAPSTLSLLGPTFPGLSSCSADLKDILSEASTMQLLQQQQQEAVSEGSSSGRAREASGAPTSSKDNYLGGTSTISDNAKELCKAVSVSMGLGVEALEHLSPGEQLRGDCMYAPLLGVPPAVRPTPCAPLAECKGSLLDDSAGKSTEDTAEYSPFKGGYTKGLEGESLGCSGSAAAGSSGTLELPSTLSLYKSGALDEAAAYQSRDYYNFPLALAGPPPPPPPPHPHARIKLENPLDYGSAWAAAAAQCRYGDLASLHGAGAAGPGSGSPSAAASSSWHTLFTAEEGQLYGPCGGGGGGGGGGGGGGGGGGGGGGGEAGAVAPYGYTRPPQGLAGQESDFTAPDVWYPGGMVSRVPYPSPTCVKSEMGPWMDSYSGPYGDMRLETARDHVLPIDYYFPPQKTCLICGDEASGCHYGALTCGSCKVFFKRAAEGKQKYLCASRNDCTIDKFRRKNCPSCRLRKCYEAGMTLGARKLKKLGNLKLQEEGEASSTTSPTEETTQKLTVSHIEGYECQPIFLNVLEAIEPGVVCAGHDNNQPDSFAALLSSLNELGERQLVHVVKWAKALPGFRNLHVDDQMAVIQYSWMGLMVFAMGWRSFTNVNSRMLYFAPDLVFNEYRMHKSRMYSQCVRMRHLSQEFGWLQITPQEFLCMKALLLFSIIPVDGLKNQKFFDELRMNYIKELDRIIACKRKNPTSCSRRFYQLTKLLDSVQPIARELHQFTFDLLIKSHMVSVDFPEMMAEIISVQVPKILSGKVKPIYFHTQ

Molecular target: T1, Cyclin dependent kinase 2 associated protein 1 (CDK2AP1) (human (endogenous in HEK293)) (UniProt O14519)
T1 sequence: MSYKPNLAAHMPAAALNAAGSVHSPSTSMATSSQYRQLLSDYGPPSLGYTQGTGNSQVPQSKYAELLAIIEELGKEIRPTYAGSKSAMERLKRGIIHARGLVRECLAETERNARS
Experiment: co-IP; CDK2AP1 monoclonal mouse antibody (5 ug) or IgG (negative control) on Pierce NHS-activated magnetic beads, incubated with 1500 ug of total HEK293 lysate for 2 h or overnight at 4 °C; eluate read by Western blotting

Molecule	binding
p53 (from UniProt P04637 1-393)	binds
Androgen receptor (AR) (from UniProt P10275 1-920)	no binding
B1	no binding
